PubChem BioAssay AID652259 | Drosophila RNAi Screening Center | 2013

Aim: 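Identify new Wingless signalling regulators in fly cells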 (primary screen)
System: Drosophila clone 8 imaginal disc epithelial cells
Knock-down reagent: long dsRNA against Drosophila genes
Challenge: pathway stimulated by co-transfected Wingless expression plasmid
Measurement: 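Dual luciferase reads per well after Wingless plasmid stimulation: reporter firefly light and Renilla control light; activity is firefly divided by Renilla, a ratio not deposited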
Direction: firefly reporter light: higher = more Wg reporter light, before normalisation; Renilla control light: higher = more transfected or surviving cells
Active means: 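Strong candidates differ from their plate mean by at least two out of four per-plate statistical tests; weak candidates meet just one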
Calls: active = candidate regulator (raises or lowers reporter); inactive = not a candidate
In all, the deposit lists about 22,000 reagents; shown is a random part of those with a known target gene and a result. In the full data, 233 (1.1%) got an active call. 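Light values are raw, unnormalised plate reads; the ratio scores behind the reporter calls were not deposited.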 Names joined by + are all predicted targets of the reagent. Not stated in the record: the amount of reagent, the time to read-out, the dose of the treatment.

CG32756 (GeneID 318193) [DRSC22505] scored firefly reporter light, replicate 1 = 3.91e5; firefly reporter light, replicate 2 = 4.98e5; Renilla control light, replicate 1 = 99736; Renilla control light, replicate 2 = 1.15e5; inactive.
Silencing of CG14205 (GeneID 32952) [DRSC19560] gave: firefly reporter light, replicate 1 = 21877; Renilla control light, replicate 1 = 9641; inactive.
Against Sec8 (GeneID 40712) [DRSC12300], the values are firefly reporter light, replicate 1 = 5668; Renilla control light, replicate 1 = 2554; inactive.
After knock-down of ACOX1 (GeneID 37028) [DRSC05941] the results were firefly reporter light, replicate 1 = 8616; Renilla control light, replicate 1 = 4648; inactive.
After knock-down of Prip (GeneID 36237) [DRSC07044], the screen gave firefly reporter light, replicate 1 = 9180; Renilla control light, replicate 1 = 2656; inactive.
After knock-down of CG42502 + CG10570 [DRSC02071], the screen gave firefly reporter light, replicate 1 = 13211; Renilla control light, replicate 1 = 3155; inactive.
With knock-down of CG32163 (GeneID 317891) [DRSC09442], the screen gave firefly reporter light, replicate 1 = 5076; Renilla control light, replicate 1 = 1910; inactive.
Depletion of CG32163 (GeneID 317891) [DRSC21888] came out at: firefly reporter light, replicate 1 = 7.66e5; firefly reporter light, replicate 2 = 7.40e5; Renilla control light, replicate 1 = 3.04e5; Renilla control light, replicate 2 = 3.52e5; inactive.
Sce (GeneID 43327) [DRSC16825] scored firefly reporter light, replicate 1 = 3020; firefly reporter light, replicate 2 = 8468; Renilla control light, replicate 1 = 1072; Renilla control light, replicate 2 = 1719; inactive.
For CG6937 (GeneID 42662) [DRSC16140] the deposit lists firefly reporter light, replicate 1 = 10339; Renilla control light, replicate 1 = 5787; inactive.
Depletion of CG18304 (GeneID 33969) [DRSC02664] resulted in: firefly reporter light, replicate 1 = 3771; firefly reporter light, replicate 2 = 7160; Renilla control light, replicate 1 = 893; Renilla control light, replicate 2 = 935; inactive.
After knock-down of CG15870 (GeneID 36446) [DRSC06588], the screen gave firefly reporter light, replicate 1 = 8209; Renilla control light, replicate 1 = 3100; inactive.
Depletion of Cdc42 (GeneID 32981) [DRSC20228] resulted in: firefly reporter light, replicate 1 = 21292; Renilla control light, replicate 1 = 8971; inactive.
For CG14868 (GeneID 41875) [DRSC14991], the entry reads firefly reporter light, replicate 1 = 2953; Renilla control light, replicate 1 = 1220; inactive.
Against GNBP1 (GeneID 40034) [DRSC11169], the values are firefly reporter light, replicate 1 = 10337; Renilla control light, replicate 1 = 4512; inactive.
For GNBP1 (GeneID 40034) [DRSC21836], the values are firefly reporter light, replicate 1 = 6.90e5; firefly reporter light, replicate 2 = 6.57e5; Renilla control light, replicate 1 = 2.38e5; Renilla control light, replicate 2 = 2.68e5; inactive.
CG14292 (GeneID 42264) [DRSC14772] showed firefly reporter light, replicate 1 = 11696; Renilla control light, replicate 1 = 1900; inactive.
CG8944 (GeneID 32517) [DRSC20128] showed firefly reporter light, replicate 1 = 4224; firefly reporter light, replicate 2 = 7403; Renilla control light, replicate 1 = 1664; Renilla control light, replicate 2 = 3330; inactive.
CG8944 (GeneID 32517) [DRSC21342] scored firefly reporter light, replicate 1 = 5.95e5; firefly reporter light, replicate 2 = 6.25e5; Renilla control light, replicate 1 = 3.00e5; Renilla control light, replicate 2 = 2.28e5; inactive.
snoRNA:Me28S-A982b + Uhg4 + snoRNA:Me28S-G3255a + 1 more [DRSC05143] showed firefly reporter light, replicate 1 = 18682; Renilla control light, replicate 1 = 9243; inactive.
Knock-down of Syn1 (GeneID 40424) [DRSC11803] came out at: firefly reporter light, replicate 1 = 20560; Renilla control light, replicate 1 = 6333; inactive.
With knock-down of Syn1 (GeneID 40424) [DRSC11804] the results were firefly reporter light, replicate 1 = 10360; Renilla control light, replicate 1 = 4371; inactive.
Knock-down of obst-I (GeneID 317966) [DRSC08339] resulted in: firefly reporter light, replicate 1 = 14672; Renilla control light, replicate 1 = 3653; inactive.
With knock-down of Cyp28d2 (GeneID 33748) [DRSC03299] the results were firefly reporter light, replicate 1 = 3572; firefly reporter light, replicate 2 = 6170; Renilla control light, replicate 1 = 1137; Renilla control light, replicate 2 = 1968; inactive.
With knock-down of Nprl3 (GeneID 39550) [DRSC11044], the record shows reporter change call, replicate 1 = Wg reporter activity lowered; firefly reporter light, replicate 1 = 3513; Renilla control light, replicate 1 = 1544; inactive.

Taken from above:
Sec8 (GeneID 40712) [DRSC12300], Renilla control light, replicate 1 → 2554
For “call”, Syn1 (GeneID 40424) [DRSC11804] has inactive
Value for CG18304 (GeneID 33969) [DRSC02664] under “Renilla control light, replicate 1”: 893
Value of CG32163 (GeneID 317891) [DRSC21888] under “call”: inactive
